In PubChem BioAssay AID720504 (National Center for Advancing Translational Sciences (NCATS), 2013):
Among all 360,000 compounds or so, about 10,000 (2.8%) were called active. This list was built around the results that the source calls inconclusive (neither active nor inactive); the mix of calls is not that of the screen. Calls follow the shape of the dose curve; as a rule, active = well fitted inhibition curve with a large enough effect; inconclusive = small, poorly fitted or top-dose-only effect; inactive = flat fitted curve, though single readings scatter. A potency beside an inconclusive call is a rough fit, not a confirmed value.

The chains behind the UniProt entries cited, without tags or fusion partners.
UniProt P53350, whole entry, looked up: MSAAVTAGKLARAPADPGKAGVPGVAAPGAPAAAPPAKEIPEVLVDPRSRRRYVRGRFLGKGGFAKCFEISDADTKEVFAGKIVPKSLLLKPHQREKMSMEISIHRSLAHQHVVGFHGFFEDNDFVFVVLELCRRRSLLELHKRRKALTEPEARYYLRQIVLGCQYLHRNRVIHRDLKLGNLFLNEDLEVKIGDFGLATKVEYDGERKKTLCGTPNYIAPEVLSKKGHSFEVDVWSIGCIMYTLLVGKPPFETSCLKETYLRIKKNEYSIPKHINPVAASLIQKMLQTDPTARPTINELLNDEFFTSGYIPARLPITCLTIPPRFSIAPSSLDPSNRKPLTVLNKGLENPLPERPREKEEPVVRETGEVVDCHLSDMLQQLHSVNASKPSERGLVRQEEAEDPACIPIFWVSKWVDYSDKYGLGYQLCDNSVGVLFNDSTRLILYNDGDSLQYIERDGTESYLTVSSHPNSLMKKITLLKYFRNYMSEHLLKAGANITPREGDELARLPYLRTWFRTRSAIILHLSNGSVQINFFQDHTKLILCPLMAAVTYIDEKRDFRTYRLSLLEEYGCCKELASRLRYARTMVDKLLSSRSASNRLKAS

These molecules were tested against Serine/threonine-protein kinase PLK1 (Homo sapiens) (UniProt P53350) (assay: qHTS for Inhibitors of PLK1-PDB (polo-like kinase 1 - polo-box domain): Primary Screen). Conditions: Plk1 PBD binding of FITC phosphopeptide, fluorescence polarization.
% is scaled to controls: 0 for no effect and ±100 for the full control effect; potency is read from the fitted curve at half-maximal effect.
Also: nearly all actives have a fitted effect of over 65% in size.
For max response, negative = inhibition in this document: series mostly up to about 57 µM.

Compound	Potency	max response, negative = inhibition
COc1ccccc1NS(=O)(=O)c1cc(NC(=O)C(C)C)ccc1N1CCCCC1	active: 11.9 µM	
N#CCCn1cc(/C=N/NC(=O)c2ccncc2)c(-c2ccc(F)cc2)n1	inconclusive: 8.44 µM [inhibitor, single point]	
COc1ccc(-n2c(Cc3cccn3C)nnc2SCC(=O)Nc2ccc(C(C)=O)cc2)cc1		inactive: -2.23%
CC1(C)CC(NC(=S)Nc2ccc(S(N)(=O)=O)cc2)CC(C)(C)N1	inconclusive: 11.9 µM [inhibitor, partial curve]	
COc1ccc(C(Nc2ccccn2)c2oc(CO)cc(=O)c2O)cc1 (stereo unspecified)	active: 23.8 µM	
CCOC(=O)Cc1csc(NC(=O)NC2(C(F)(F)F)Oc3ccccc3O2)n1	active: 11.9 µM	
CC(CS(=O)(=O)c1ccc2c(c1)NC(=O)CS2)C(=O)NCc1ccccc1Cl (stereo unspecified)	inconclusive: 18.9 µM [inhibitor, partial curve]	
COc1ccc(C(=O)Sc2nncc3ccccc23)cc1	inconclusive: 26.7 µM [inhibitor, partial curve]	
Cc1cnc(C(=O)OCC(=O)Nc2sc3c(c2C#N)CCC3)cn1		inactive: -15.7%
O=C(Nc1ccc(N2CCOCC2)cc1)c1ccc2c(c1)OCO2	active: 26.7 µM	
COc1ccccc1/C=C1/C(=O)ON=C1C	active: 4.74 µM	
Cc1c(NS(=O)(=O)c2cc(C(=O)NCc3ccco3)cc(Cl)c2Cl)c(=O)n(-c2ccccc2)n1C		inactive: -6.1%
COC(=O)c1ccc(Cn2c(CN3CCOCC3)nc3ccccc3c2=O)o1		inactive: -2.15%
COc1ccc2c(c1)[nH]c1c(=O)n(/N=C/c3ccc(OC)c(CN4CCCC4)c3)cnc12	inconclusive: 16.8 µM [inhibitor, partial curve, poor fit]	
Cc1cc(Cl)c(O)c(-n2nc3ccccc3n2)c1	active: 23.8 µM	
c1ccc(CN2CCN(CCOCCOc3cccc4ccccc34)CC2)cc1		inactive: -8%
CCn1c(SCC(=O)NNC(=O)c2ccco2)nnc1-c1ccco1	inconclusive: 23.8 µM [inhibitor, single point]	
COc1cc(/C=N/NC(=S)NCCN2CCOCC2)cc(OC)c1O		inactive: -11.8%

Compound	Potency	max response, negative = inhibition
Cc1ccc(NC(=O)c2ccc(S(=O)(=O)NCC3CCCO3)cc2)cc1C (stereo unspecified)		inconclusive: -31.9% [inhibitor]
O=C1OC(OC(=O)c2ccccc2Br)C(N2CCOCC2)=C1Cl (stereo unspecified)	inconclusive: 29.9 µM [inhibitor, partial curve]	
FC(F)Oc1ccc(-n2cc(-c3ccccc3)[n+]3c2CCCCC3)cc1		inactive: -12.9%
CCOC(=O)c1nc(NCc2ccccc2)c2ccccc2n1	inconclusive: 21.2 µM [inhibitor, single point]	
O=C(CSCc1ccccc1Br)NNC(=S)NCc1ccco1	inconclusive: 7.52 µM [inhibitor, partial curve]	
CC(=O)Nc1cccc(N/C(N)=N/c2nc(C)cc(C)n2)c1		inactive: -3.26%
Cc1ccc(C)c(OCC(=O)Nc2ccc(C(=O)O)cc2NC(=O)COc2cc(C)ccc2C)c1		inactive: -22.4%
COc1ccc(C)cc1N1C(=N)/C(=C2/Nc3ccccc3S2)C(c2ccccc2)C1=O (stereo unspecified)		inconclusive: -35.1% [inhibitor]
CCOC(=O)c1c(N2CCN(c3ccccc3)CC2)cc(C)nc1C		inactive: -12.3%
Cc1ccc(C(=O)OCC(=O)c2ccc(CC(=O)N3CCOCC3)s2)cc1C		inactive: -2.58%
Cc1cccc(NCc2nnc(-c3ccccc3)o2)c1C	inconclusive: 21.2 µM [inhibitor, single point]	
O=C(CCCCCN1C(=O)[C@@H]2Cc3ccccc3CN2C1=O)Nc1ccccc1F	inconclusive: 29.9 µM [inhibitor, single point]	
COc1cc(O)cc2cc3c(c(O)c12)C(=O)CC(C)(O)O3 (stereo unspecified)	inconclusive: 23.8 µM [inhibitor, partial curve]	
CCN(CC)c1ccc(N)cc1		inactive: 4.39%
CCOc1ccccc1OCc1nn2c(-c3ccc(C)cc3)nnc2s1	inconclusive: 37.7 µM [inhibitor, single point]	
Cc1nc(S/C(=C\c2ccc(-c3ccc(C(=O)O)c(Cl)c3)o2)C(=O)O)n[nH]1	inconclusive: 18.9 µM [inhibitor, partial curve]	
CC1CCc2c(c3ccccc3n2C(=O)CCl)C1 (stereo unspecified)	inconclusive: 11.9 µM [inhibitor, partial curve]	
CCS(=O)(=O)N1CCN(C(=O)CC(C)C)CC1	inconclusive: 23.8 µM [inhibitor, single point]	

Ordered by number of heavy atoms (falling): part of the list above
Compound	Potency	max response, negative = inhibition
Cc1ccc(C)c(OCC(=O)Nc2ccc(C(=O)O)cc2NC(=O)COc2cc(C)ccc2C)c1		inactive: -22.4%
COc1cc(O)cc2cc3c(c(O)c12)C(=O)CC(C)(O)O3 (stereo unspecified)	inconclusive: 23.8 µM [inhibitor, partial curve]	
CC1CCc2c(c3ccccc3n2C(=O)CCl)C1 (stereo unspecified)	inconclusive: 11.9 µM [inhibitor, partial curve]	
